Laboratory results taken from patent US5744023A, “Method for separation and recovery of organogermanium compound” (Asai Germanium Research Institute Co., Ltd., priority 1994, dated 1998).

Legend:
[1] = electrodialysis separation of Ge-132 from saccharide solutions (Examples 1-6, Table 5)
[2] = electrodialysis of isomerization mixture after glucose isomerization into fructose (Example 7, Table 6); settings: Example 7, isomerization mixture diluted ten-fold
[3] = Example 4, lactose + Ge-132, 15 min
[4] = Example 4, lactose + Ge-132, 30 min
[5] = Example 6, lactose/lactulose + Ge-132, 15 min
[6] = Example 6, lactose/lactulose + Ge-132, 30 min
[7] = Example 1, glucose + Ge-132, 15 min
[8] = Example 1, glucose + Ge-132, 30 min
[9] = Example 2, fructose + Ge-132, 15 min
[10] = Example 2, fructose + Ge-132, 30 min
[11] = Example 3, glucose/fructose + Ge-132, 15 min
[12] = Example 3, glucose/fructose + Ge-132, 30 min
[13] = Example 5, lactulose + Ge-132, 15 min
[14] = Example 5, lactulose + Ge-132, 30 min

With OC[C@H]1O[C@@H](O[C@H]2[C@H](O)[C@@H](O)C(O)O[C@@H]2CO)[C@H](O)[C@@H](O)[C@H]1O (stereo partly shown) [Lactose, lactose] as the compound, how does the “Concentration after desalting C2” value [1, 3] read?
The value was 9.865 mM.

What about the “Reduction C1-C2” value [1, 3] of the same compound?
The value was 0.075 mM.

And the Reduction rate [1, 3]?
Its Reduction rate is 0.75%.

What about the “Concentration after desalting C2” value [1, 4] of the same compound?
The value was 9.925 mM.

And the “Reduction C1-C2” value [1, 4]?
Its value is 0.015 mM.

And the Reduction rate [1, 4]?
The Reduction rate was 0.15%.

What about the “Concentration after desalting C2” value [1, 5] of the same compound?
The value was 9.71 mM.

And the “Reduction C1-C2” value [1, 5]?
The value was 0.08 mM.

And the “Concentration after desalting C2” value [1, 6]?
The value was 9.585 mM.

What about the “Reduction C1-C2” value [1, 6] of the same compound?
The value was 0.205 mM.

Which results are given for O=C(O)C[CH2][Ge](=[O])[O][Ge](=[O])[CH2]CC(=O)O [Compound 1, 2-carboxyethylgermanium sesquioxide]?
Concentration after desalting C2 ([2]; 15 min): 1.38 mM; Reduction C1-C2 ([2]; 15 min): 6.12 mM; Reduction rate ([2]; 15 min): 81.56%; Concentration after desalting C2 ([2]; 30 min): 0.36 mM; Reduction C1-C2 ([2]; 30 min): 7.14 mM; Reduction rate ([2]; 30 min): 96.25%; Concentration after desalting C2 [1, 7]: 0.963 mM; Reduction C1-C2 [1, 7]: 3.187 mM; Reduction rate [1, 7]: 76.80%; Concentration after desalting C2 [1, 8]: 0.1615 mM; Reduction C1-C2 [1, 8]: 3.9885 mM; Reduction rate [1, 8]: 96.11%; Concentration after desalting C2 [1, 9]: 0.68 mM; Reduction C1-C2 [1, 9]: 3.49 mM; Reduction rate [1, 9]: 83.69%; Concentration after desalting C2 [1, 10]: 0.1105 mM; Reduction C1-C2 [1, 10]: 4.0595 mM; Reduction rate [1, 10]: 97.35%; Concentration after desalting C2 [1, 11]: 1.36 mM; Reduction C1-C2 [1, 11]: 2.67 mM; Reduction rate [1, 11]: 66.25%; Concentration after desalting C2 [1, 12]: 0.39 mM; Reduction C1-C2 [1, 12]: 3.64 mM; Reduction rate [1, 12]: 90.35%; Concentration after desalting C2 [1, 3]: 1.15 mM; Reduction C1-C2 [1, 3]: 3.01 mM; Reduction rate [1, 3]: 72.36%; Concentration after desalting C2 [1, 4]: 0.167 mM; Reduction C1-C2 [1, 4]: 3.993 mM; Reduction rate [1, 4]: 95.99%; Concentration after desalting C2 [1, 13]: 0.914 mM; Reduction C1-C2 [1, 13]: 3.286 mM; Reduction rate [1, 13]: 78.24%; Concentration after desalting C2 [1, 14]: 0.191 mM; Reduction C1-C2 [1, 14]: 4.009 mM; Reduction rate [1, 14]: 95.45%; Concentration after desalting C2 [1, 5]: 1.23 mM; Reduction C1-C2 [1, 5]: 2.95 mM; Reduction rate [1, 5]: 70.57%; Concentration after desalting C2 [1, 6]: 0.326 mM; Reduction C1-C2 [1, 6]: 3.854 mM; Reduction rate [1, 6]: 92.20%

Which results are given for O=C(CO)[C@@H](O)[C@H](O)[C@H](O)CO [Fructose, fructose]?
Concentration after desalting C2 ([2]; 15 min): 13.26 mM; Reduction C1-C2 ([2]; 15 min): 1.54 mM; Reduction rate ([2]; 15 min): 10.41%; Concentration after desalting C2 ([2]; 30 min): 13.22 mM; Reduction C1-C2 ([2]; 30 min): 1.58 mM; Reduction rate ([2]; 30 min): 10.67%; Concentration after desalting C2 [1, 9]: 9.13 mM; Reduction C1-C2 [1, 9]: 1.17 mM; Reduction rate [1, 9]: 11.36%; Concentration after desalting C2 [1, 10]: 9.1 mM; Reduction C1-C2 [1, 10]: 1.2 mM; Reduction rate [1, 10]: 11.65%; Concentration after desalting C2 [1, 11]: 9.105 mM; Reduction C1-C2 [1, 11]: 0.605 mM; Reduction rate [1, 11]: 6.23%; Concentration after desalting C2 [1, 12]: 9.11 mM; Reduction C1-C2 [1, 12]: 0.61 mM; Reduction rate [1, 12]: 6.18%

Which results are given for O=C[C@H](O)[C@@H](O)[C@H](O)[C@H](O)CO [Glucose, glucose]?
Concentration after desalting C2 ([2]; 15 min): 0.154 mM; Reduction C1-C2 ([2]; 15 min): 0.011 mM; Reduction rate ([2]; 15 min): 7.14%; Concentration after desalting C2 ([2]; 30 min): 0.154 mM; Reduction C1-C2 ([2]; 30 min): 0.011 mM; Reduction rate ([2]; 30 min): 6.67%; Concentration after desalting C2 [1, 7]: 9.915 mM; Reduction C1-C2 [1, 7]: 0.185 mM; Reduction rate [1, 7]: 1.83%; Concentration after desalting C2 [1, 8]: 9.095 mM; Reduction C1-C2 [1, 8]: 0.195 mM; Reduction rate [1, 8]: 1.93%; Concentration after desalting C2 [1, 11]: 9.65 mM; Reduction C1-C2 [1, 11]: 0.45 mM; Reduction rate [1, 11]: 4.46%; Concentration after desalting C2 [1, 12]: 9.7 mM; Reduction C1-C2 [1, 12]: 0.405 mM; Reduction rate [1, 12]: 4.01%

For OC[C@H]1O[C@@H](O[C@@H]2[C@@H](CO)OC(O)(CO)[C@H]2O)[C@H](O)[C@@H](O)[C@H]1O (mixture of isomers) [Lactulose, lactulose], which “Concentration after desalting C2” value [1, 13] is on record?
Its value is 9.575 mM.

What about the “Reduction C1-C2” value [1, 13] of the same compound?
Its value is 0.235 mM.

And the Reduction rate [1, 13]?
The Reduction rate was 2.40%.

And the “Concentration after desalting C2” value [1, 14]?
The value was 9.635 mM.

And the “Reduction C1-C2” value [1, 14]?
The value was 0.715 mM.

What about the Reduction rate [1, 14] of the same compound?
The Reduction rate was 1.78%.

And the “Concentration after desalting C2” value [1, 5]?
The value was 9.61 mM.

What about the “Reduction C1-C2” value [1, 5] of the same compound?
The value was 0.27 mM.

What about the Reduction rate [1, 5] of the same compound?
The Reduction rate was 2.73%.

What about the “Concentration after desalting C2” value [1, 6] of the same compound?
Its value is 9.72 mM.

And the “Reduction C1-C2” value [1, 6]?
Its value is 0.16 mM.

And the Reduction rate [1, 6]?
The Reduction rate was 1.62%.
